Laboratory results as given in PubChem BioAssay AID758 (NMMLSC, 2007).
Screen size: about 190,000 compounds; about 110 (0.058%) were called active. Inconclusive means that the source gave no clear call. Such entries were picked first, then a sample of the others.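 How the source made its calls: active means fluorescent GTP binding to Rab7 beads changed by at least 20 points from the 100% baseline, either direction, mostly lower; inconclusive means compound itself probably fluorescent, or too few beads counted; inactive means the rest.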

The compounds below were run on Rab7 GTPase wild type (dog), Bodipy-FL-GTP binding (assay: modulators of GTP binding to Rab7, primary screen, biochemical, wildtype, multiplex bead flow cytometry (AID 758;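 further: median green fluorescence of bound Bodipy-FL-GTP per Rab7 bead population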)). Settings: GST-Rab7 beads, fluorescent GTP binding, at 10 µM, actives lie on both sides, untreated = 100%, excess cold GTP = 0%.
For Cc1nn(-c2ccccc2)c(Cl)c1C1C(C#N)=C(N)OC2=C1C(=O)CCC2 (stereo not drawn), the GTP binding activity (percent of control) was inconclusive: 102%. In the case of Clc1ccc2c(N/N=C/c3ccccc3Br)ccnc2c1, the GTP binding activity (percent of control) is reported as inconclusive: 103%. In the case of CCN(CC)S(=O)(=O)c1cc(C(=O)Nc2cc(Cl)ccc2N2CCN(C)CC2)ccc1Cl, the GTP binding activity (percent of control) is reported as inconclusive: 103%. With O=C(Nc1nccs1)c1cncc(Br)c1 the GTP binding activity (percent of control) was inactive: 104%. In the case of CCCCNC(=O)C(=O)N/N=C/c1ccc(OCC(=O)Nc2cccc(OC)c2)c(OC)c1, the GTP binding activity (percent of control) is reported as inactive: 94%. With CCOc1cc(C(=O)NC)cc(Br)c1OCc1ccccc1 the GTP binding activity (percent of control) was inconclusive: 90%. For COc1ccc(C2=NN(C(C#N)c3ccc(OC)cc3)C(c3ccccc3)C2)cc1 (stereo not drawn), the GTP binding activity (percent of control) was inactive: 101%. For COc1ccc(-n2c(=S)[nH]c3c(oc4ccccc43)c2=O)cc1, the GTP binding activity (percent of control) was inactive: 98%. With Cc1cccn2c(=O)c(C=NCCO)c(Nc3ccc(Cl)cc3)nc12 the GTP binding activity (percent of control) was inconclusive: 93%. In the case of Oc1ccc2ccccc2c1/C=N/Nc1nnc(-c2ncc[nH]2)c2ccccc12, the GTP binding activity (percent of control) is reported as inconclusive: 77%. For CCOC(=O)N1CCN(C(=O)c2ccc(CS(=O)(=O)c3ccccc3OC)o2)CC1, the GTP binding activity (percent of control) was inconclusive: 96%. In the case of COc1ccccc1NS(=O)(=O)c1ccc2c(c1)n(C)c(=O)n2C, the GTP binding activity (percent of control) is reported as inactive: 98%. In the case of C=CCn1c(C)cc(C(=O)Cn2nc(C(=O)O)c3ccccc3c2=O)c1C, the GTP binding activity (percent of control) is reported as inconclusive: 104%. COc1ccc(NC(=O)c2sc(Cl)nc2-c2ccccc2)cc1 was tested, and the GTP binding activity (percent of control) was inactive: 102%. With C#CC1CN(Cc2ccccc2)CC(C#C)N1C (stereo not drawn) the GTP binding activity (percent of control) was inconclusive: 96%. With CCOC(=O)CN(C(=O)CSc1nnc2c(n1)[nH]c1ccc(OC)cc12)c1ccc(F)cc1 the GTP binding activity (percent of control) was inconclusive: 85%. In the case of ClCc1nnc(-c2cc3c(s2)CCCC3)o1, the GTP binding activity (percent of control) is reported as inactive: 105%. With O=C(CSc1ccc2nnc(-c3cccs3)n2n1)N1CCCC1 the GTP binding activity (percent of control) was inactive: 96%. With CCc1cccc(C)c1NC(=O)CO/N=C(\N)CC(=O)NC1CCCCC1 the GTP binding activity (percent of control) was inconclusive: 111%. For COc1ccccc1NS(=O)(=O)c1ccc(NC(=O)CCNC(=O)c2ccco2)cc1, the GTP binding activity (percent of control) was inactive: 101%. For O=C(NN1C(=O)C2C3CCC(O3)C2C1=O)c1ccco1 (stereo not drawn), the GTP binding activity (percent of control) was inactive: 99%. In the case of COC(=O)C1=C(C)OC(N)=C(C#N)C1C1CCCCC1 (stereo not drawn), the GTP binding activity (percent of control) is reported as inactive: 99%. C(=N\Nc1nc2ccccc2s1)/c1ccco1 was tested, and the GTP binding activity (percent of control) was inconclusive: 104%. With CCOc1ccc(C(=O)NC2CCN(C(=S)NCc3ccco3)CC2)cc1 the GTP binding activity (percent of control) was inconclusive: 91%. With CC(=O)NC1C(=O)N(CC(C)C)c2ccccc21 (stereo not drawn) the GTP binding activity (percent of control) was inconclusive: 103%. For CC(=O)NC(CC(=O)Nc1ccc(S(=O)(=O)N2CCCC2)cc1)c1ccccc1 (stereo not drawn), the GTP binding activity (percent of control) was inconclusive: 106%. CC(C)CC1=NN(C(=O)c2ccncc2)C(O)(C(F)(F)F)C1 (stereo not drawn) was tested, and the GTP binding activity (percent of control) was inactive: 101%. In the case of COc1ccc([C@@H]2Sc3cc(OC)ccc3N(CCN(C(C)C)C(C)C)C(=O)[C@H]2OC(C)=O)cc1, the GTP binding activity (percent of control) is reported as inconclusive: 98%. In the case of CCc1nnc(NC(=O)CSc2nnc3c4ccccc4n(C)c3n2)s1, the GTP binding activity (percent of control) is reported as inconclusive: 86%. With CN1C(=O)c2ccccc2N(C)C1c1ccc2c(c1)OCO2 (stereo not drawn) the GTP binding activity (percent of control) was inactive: 99%. In the case of Cc1cc(C(=O)OCC(=O)Nc2cc(S(=O)(=O)N(C)C)ccc2Cl)c2ccccc2n1, the GTP binding activity (percent of control) is reported as inconclusive: 99%. For COc1ccc(NC(=O)Cc2nnc(N)s2)cc1, the GTP binding activity (percent of control) was inconclusive: 99%. With COc1ccc(CN(CC2CCC(C(=O)O)CC2)C(=S)Nc2cccc(C)c2)cc1 (stereo not drawn) the GTP binding activity (percent of control) was inactive: 94%. In the case of Cc1nn(CC(O)COc2ccc3c(c2)CCC3)c(C)c1Br (stereo not drawn), the GTP binding activity (percent of control) is reported as inconclusive: 105%. For CC(C)C(=O)NC(C)C(c1cccs1)N1CCN(C)CC1 (stereo not drawn), the GTP binding activity (percent of control) was inconclusive: 99%. With CCn1c(NCc2cc(Br)ccc2NS(=O)(=O)c2ccc(C)cc2)nc2ccccc21 the GTP binding activity (percent of control) was inactive: 97%. With CCOc1cc(S(=O)(=O)N2CCN(Cc3ccccc3)CC2)ccc1Br the GTP binding activity (percent of control) was inconclusive: 94%. In the case of CN1CCN(S(=O)(=O)c2cccc(C(=O)Nc3sc4c(c3C(N)=O)CCCC4)c2)CC1, the GTP binding activity (percent of control) is reported as inactive: 85%. COc1ccc(CCC(C)NCC2CCCCC2)cc1 (stereo not drawn) was tested, and the GTP binding activity (percent of control) was inconclusive: 102%. For Cc1ccc(-n2c(SCc3cc(=O)n4ccsc4n3)nnc2-c2cccnc2)c(C)c1, the GTP binding activity (percent of control) was inactive: 108%. In the case of O=C(O)c1ccccc1OCc1ccccc1Br, the GTP binding activity (percent of control) is reported as active: 120% [activator]. In the case of CCOC(=O)c1c(C)nc2c(c1-c1ccccc1)C(=O)CCC2, the GTP binding activity (percent of control) is reported as inconclusive: 94%. For CCOc1nc(-c2ccncc2)nc2ccccc12, the GTP binding activity (percent of control) was inconclusive: 104%. CCc1ccc(C(=O)COC(=O)c2cnc(C)cn2)cc1 was tested, and the GTP binding activity (percent of control) was inconclusive: 94%. With CCCCn1nc2cc(C(=O)NCc3ccc(OC(F)(F)F)cc3)ccc2c1OC the GTP binding activity (percent of control) was inconclusive: 103%. With CC(C)C(=O)Nc1ccc(NC(=S)NC(=O)c2cc3ccccc3o2)cc1 the GTP binding activity (percent of control) was inconclusive: 101%. In the case of NS(=O)(=O)c1ccc(NC(=O)CN2C(=O)C3C4C=CC(C4)C3C2=O)cc1 (stereo not drawn), the GTP binding activity (percent of control) is reported as inactive: 100%. In the case of CCOC(=O)C1=NOC2C(=O)N(c3ccc(Cl)cc3Cl)C(=O)C12 (stereo not drawn), the GTP binding activity (percent of control) is reported as inconclusive: 95%.
